This test in a line: qHTS Assay for Lipid Storage Modulators in Drosophila S3 Cells.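 On cell number change: cells counted by Cell Tracker Red CMTPX staining in the red channel.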 To be noted: BODIPY lipid droplet fluorescence, 18-24 h; for cell number change: measured here: cell count max response, cells fed with added oleic acid. Put shortly: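 Laser-scanning cytometry quantifies lipid droplet accumulation (500–530 nm total intensity; droplet/cell object ratio) in oleic acid-fed (400 uM added) Drosophila S3 cells treated with a concentration series. 20 uM Triacsin C defined 100% inhibition.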
In general terms: qHTS replaces the single test concentration by a dilution series.

Where [1] appears, read: measured here: lipid fluorescence (Fed channel) AC50, cells fed with added oleic acid.
Setting [2] is: measured here: cell number channel AC50, cells fed with added oleic acid.

This is one part of the list. The main result of the screen is listed elsewhere. These columns were measured beside it and carry no call. Most of these compounds were active or inconclusive in the main read-out, so they are no random draw. The note in brackets gives the kind of curve behind each potency; many fits are weak.

By AC50 is commonly meant the concentration giving half of the maximal activity seen. A high value points to weaker potency.

With `COc1ccc(CCNC(=O)c2ccc(CS(=O)Cc3ccc(Cl)cc3)o2)cc1OC` (stereo not given), under setting [1], the AC50 is 6.51 µM [falling, single point].

Turning to `O=[N+]([O-])c1cccc(N(CC2CO2)S(=O)(=O)c2ccccc2)c1` (stereo not given), the cell number change is -3.04%.

As for `CCOC(=O)c1sc(-c2ccc(C)cc2)c(C#N)c1C`, the cell number change amounted to 24.7%. In addition, under setting [1], the AC50 is 5.8 µM [rising, partial curve].

As for `CCOc1ccc(C(C)=O)cc1COc1cccnc1[N+](=O)[O-]`, the cell number change was -9.21%. For the same compound, under setting [1], the AC50 is 35.5 µM [rising, single point].

On to `Cn1c(/C(C#N)=C/Nc2ccccn2)nc2ccccc21`, for which the half-maximal activity concentration (AC50) was 2.59 µM [rising, partial curve] under setting [2] and 3.66 µM [rising, partial curve] under setting [1].

In the case of `CC(NC(=O)COC(=O)c1ccc2c(c1)OCO2)c1ccccc1` (stereo not given), the AC50 under setting [1] is 0.146 µM [rising, full curve, poor fit].

As to `COC(=O)c1c(C)cc(C)n2c1nc1ccccc12`, the cell number change worked out at 36.6%. Moreover, under setting [2], the AC50 was 7.31 µM [rising, partial curve, poor fit]. The AC50 under setting [1] is 6.51 µM [rising, full curve].

For `CCOC(=O)c1ccccc1NC(=O)c1ccccc1N(C)S(C)(=O)=O`, the cell number change amounted to 10.3%. Also, the AC50 under setting [1] was 29.1 µM [falling, single point].

For `CC(C)(C)C(=O)O/N=C(\N)COc1cccc(Cl)c1`, the cell number change was 5.81%.

Consider `CCN(Cc1ccccc1)C(=O)CSc1ncn[nH]1`, for which the cell number change was -0.451%. For the same compound, under setting [1], the AC50 was 6.51 µM [falling, single point].

For `Cc1ccc(OCC(=O)N2CCc3ccccc3C2)c([N+](=O)[O-])n1`, the cell number change turned out to be 26.5%. Besides, the AC50 under setting [2] was 0.103 µM [rising, full curve, poor fit]. The AC50 under setting [1] was 0.206 µM [rising, full curve, poor fit].

With `CC1CCCCC12NC(=O)N(Cn1nnc3ccccc3c1=O)C2=O` (stereo not given), the cell number change amounted to 0.252%. Further, the half-maximal activity concentration (AC50) under setting [1] was 0.731 µM [rising, full curve].

For `Cc1ccc(S(=O)(=O)N2CCCOC2CNC(=O)C(=O)NCCC2=CCCCC2)cc1` (stereo not given), the cell number change was 14.7%. Moreover, the AC50 under setting [1] is 8.2 µM [rising, partial curve, poor fit].

In the case of `C/C(=C\C(=O)c1ccccc1)Nc1ccc2c(c1)OCO2`, the cell number change is -23.4%.

As to `CSc1cccc(NC(=O)c2c(Cl)cnn2C)c1`, the cell number change is -7.45%. In addition, under setting [1], the AC50 is 6.51 µM [falling, single point].

Consider `CCN(CCCNC(=O)C1CCCN(S(=O)(=O)CC)C1)c1cccc(C)c1` (stereo not given), for which the cell number change is -6.42%. The half-maximal activity concentration (AC50) under setting [1] is 29.1 µM [rising, single point].

Consider `Cc1cc(OCC(=O)NC(C)C)ccc1Cl`, for which the cell number change was determined as 11.9%.

Turning to `COCCSc1nnc(NC(=O)c2ccc(NC(=O)C(C)C)cc2)s1`, the cell number change is -26.2%. Also, under setting [1], the AC50 was 4.61 µM [falling, single point].

Turning to `O=C(NCCCCNC(=O)c1ccc(Br)s1)c1ccc(Br)s1`, the cell number change came to 11.6%. In addition, the AC50 under setting [1] was 0.651 µM [falling, partial curve, poor fit].

Consider `Cc1ccc(C)c(N2CCN(C(=O)Cc3ccc(-n4c(=O)[nH]c5ccsc5c4=O)cc3)CC2)c1`, for which the cell number change was found to be 3.87%. Also, under setting [1], the AC50 is 16.4 µM [rising, single point].

On to `CCC(NS(=O)(=O)c1ccc(OC)cc1)C(=O)NCCC1=CCCCC1` (stereo not given), for which the cell number change turned out to be 7.01%. Further, the half-maximal activity concentration (AC50) under setting [1] is 0.0058 µM [rising, full curve, poor fit].

In the case of `Cc1ccc(C(=O)C(C)OC(=O)Cc2n[nH]c(=O)c3ccccc23)cc1` (stereo not given), the cell number change is -25.8%. Also, the AC50 under setting [1] is 0.116 µM [falling, full curve, poor fit].

Regarding `CCc1ccc(Nc2n[n+](C)c(-c3ccc(C(=O)O)cc3)s2)cc1`, the AC50 under setting [1] is 16.4 µM [rising, partial curve].

For `COc1cc2c(C#N)c(N3CCN(c4ccccc4OC)CC3)nc(N)c2c(N)n1`, the cell number change was -50.8%. For the same compound, the AC50 under setting [2] is 16.4 µM [falling, single point]. For the same compound, the AC50 under setting [1] is 29.1 µM [falling, single point].

As for `Cn1c(N)c(Sc2ccc(F)cc2)c(=O)n(C)c1=O`, the cell number change was found to be 1.97%. Under setting [1], the half-maximal activity concentration (AC50) was 3.66 µM [falling, single point].

On to `CSC1=NCCN1C(=O)c1ccc(S(=O)(=O)N(C)C)cc1`, for which the cell number change was found to be 3.68%. Also, the AC50 under setting [1] is 7.31 µM [falling, single point].

With `CCC(CC)NC(=O)COC(=O)c1ccc(OCC(=O)Nc2ccccc2OC)c(OC)c1`, the cell number change came out at 33.5%. For the same compound, the AC50 under setting [2] was 29.1 µM [rising, single point].

For `CCN(C(=O)COC(=O)c1c(C)nn(-c2ccccc2)c1C)C1CCS(=O)(=O)C1` (stereo not given), the cell number change was -30%. Under setting [2], the AC50 is 2.31 µM [falling, full curve]. Moreover, the AC50 under setting [1] was 0.206 µM [falling, full curve].

In the case of `CCOC(=O)CNC(=O)Cn1cnc2ccc(S(=O)(=O)N3CCC(C)CC3)cc2c1=O`, the cell number change was determined as 16.7%.

Turning to `N#Cc1nc(COc2ccc(Cl)cc2)oc1N1CCN(Cc2ccccc2)CC1`, the cell number change was determined as 14.1%.

Regarding `COc1cc(NC(=O)c2ccc3c(c2)C(=O)N(CCC(C)C)C3=O)c(C(=O)O)cc1OC`, the cell number change came to 1.32%.

Consider `Cc1c(Cl)cccc1NC(=O)Cc1cccs1`, for which the cell number change was 3.3%. Further, under setting [1], the AC50 was 0.58 µM [rising, single point].

Turning to `CCc1sc(C(=O)Nc2cccnc2)cc1Br`, the cell number change was -3.03%. For the same compound, the AC50 under setting [1] was 4.61 µM [falling, single point].

`O=C(NCc1cccnc1)C1CCCN(S(=O)(=O)c2ccc(Cl)cc2)C1` (stereo not given): the AC50 under setting [2] is 0.92 µM [rising, partial curve].

As to `Cc1ccc(O)c(CNc2cnc3ccccc3c2)c1`, the cell number change was -12.9%.

In the case of `COC(=O)c1sc2ncn(CC(=O)N(C)C3CCCCC3)c(=O)c2c1C`, the cell number change was found to be 2.17%. Moreover, the AC50 under setting [1] was 6.51 µM [falling, single point].

Regarding `CCCn1c(=O)c(C(=O)Nc2cccc(C)c2)c(O)c2ccccc21`, the cell number change worked out at 23.6%.

Regarding `CCC(CC)=N/N=C/c1c(O)n(CC)c2cc(C3=NNC(=O)CC3)ccc12`, the cell number change was -33.6%. Also, the AC50 under setting [2] is 14.6 µM [falling, partial curve, poor fit]. The AC50 under setting [1] is 14.6 µM [falling, partial curve].

Regarding `COc1ccc(-c2nnc(SCc3ncc(-c4ccccc4)o3)o2)cc1`, the cell number change is -7.3%. Also, under setting [1], the AC50 is 4.11 µM [rising, single point].

For `CCCC(c1nnnn1CCc1ccccc1)N1CCN(C(=O)c2ccco2)CC1` (stereo not given), the cell number change is -11.8%. Besides, the AC50 under setting [1] was 1.84 µM [rising, partial curve, poor fit].

Take `COc1cccc(/C=N/Nc2nn3cnnc3c3ccccc23)c1O`: the cell number change worked out at 5.47%. For the same compound, the AC50 under setting [2] is 0.651 µM [falling, single point].

With `Cc1cccc2[nH]c(-c3ccc(NC(=O)c4ccco4)cc3)nc12`, the cell number change is -16.9%. Further, the concentration at half-maximal activity (AC50) under setting [1] is 0.92 µM [rising, partial curve, poor fit].

Regarding `CCOC(=O)c1ccc(N2CCN(c3ccc(F)cc3)CC2)c(NC(=O)Nc2cccc(OC)c2)c1`, the cell number change was found to be 12.9%. For the same compound, under setting [1], the half-maximal activity concentration (AC50) is 9.2 µM [rising, partial curve].

Take `CCOc1ccc(S(=O)(=O)NC(C)C(=O)NCc2cccnc2)cc1` (stereo not given): the cell number change was -6.58%. In addition, the AC50 under setting [1] is 35.5 µM [rising, single point].

Consider `C=CCOc1c(CNc2cccc(C(=O)O)c2)cccc1OC`, for which the cell number change is 1.93%. For the same compound, the AC50 under setting [1] is 1.3 µM [falling, partial curve].

Take `Cc1cc(C)c(NC(=O)c2cc(=O)c3ccccc3o2)c(C)c1`: the cell number change came to 22.7%. Also, the AC50 under setting [1] is 2.91 µM [rising, full curve, poor fit].

For the compound `CC1CCCN(S(=O)(=O)c2ccc(NC(=O)C3CC(=O)N(c4ccccc4)C3)cc2)C1` (stereo not given), the cell number change is -4.7%.

Turning to `COc1ccc(CNC(=S)Nc2ccc(S(N)(=O)=O)cc2)cc1`, the cell number change turned out to be 16.6%. For the same compound, the AC50 under setting [2] is 0.58 µM [rising, single point]. For the same compound, under setting [1], the AC50 is 1.16 µM [rising, single point].

On to `COc1cc(NC(=S)N2CCN(C)CC2)c(OC)cc1Cl`, for which the cell number change amounted to 4.03%.

On to `OC(COc1ccc2c(c1)OCO2)CN1CCCCC1` (stereo not given), for which the cell number change was -59.5%. In addition, the AC50 under setting [2] was 1.3 µM [falling, partial curve].

With `COc1cc(OC)cc(C(=O)N2CCC(C(=O)NCCc3ccccc3)CC2)c1`, the cell number change is 4.4%. Also, the AC50 under setting [1] was 32.6 µM [falling, partial curve, poor fit].

In the case of `CN(C)C=Nc1ncc2c([nH]c3ccccc32)c1C#N`, the AC50 is 1.64 µM [rising, partial curve] under setting [2] and 0.731 µM [rising, partial curve] under setting [1].

`CCOc1ccccc1N(CC(=O)N1CCCC1)S(C)(=O)=O`: the cell number change is 0.365%. In addition, the AC50 under setting [1] is 29.1 µM [rising, single point].

With `O=C(CN1C(=O)c2ccccc2C1=O)NCCc1c[nH]c2ccc(Cl)cc12`, under setting [1], the AC50 was 0.58 µM [rising, single point].

Consider `COc1ccc(NC(=O)NNC(=O)c2ccc(-c3ccccc3)cc2)cc1`, for which the cell number change came out at 13.9%. Moreover, under setting [1], the AC50 is 11.2 µM [rising, partial curve].

Take `Cc1ccc(-c2csc3ncnc(Oc4ccc5c(C)cc(=O)oc5c4)c23)cc1`: the cell number change was 5.31%.

For the compound `Cc1cc2nc(N)sc2cc1C`, the cell number change was -2.74%.

Turning to `O=C(O)COc1ccc(Br)cc1/C=N/O`, the cell number change came to 0.413%.

Regarding `O=C1C2CC=CCC2C(=O)N1c1ccc(NCCc2ccc(O)cc2)c([N+](=O)[O-])c1` (stereo not given), the cell number change was -0.219%. In addition, the AC50 under setting [1] was 14.6 µM [falling, partial curve].

With `N/C(=N\OC(=O)COc1ccc([N+](=O)[O-])cc1)c1cccnc1`, the cell number change worked out at 63.4%. Also, under setting [2], the AC50 was 2.59 µM [rising, full curve]. In addition, the AC50 under setting [1] was 3.26 µM [rising, full curve].

`CCCOC(=O)Oc1ccc2c(=O)c(Oc3cc(C)cc(C)c3)coc2c1`: the cell number change was -17.2%. In addition, the AC50 under setting [2] is 0.00517 µM [falling, full curve, poor fit].

In the case of `CCN(CC)C(=O)C(=O)N/N=C/c1ccc(F)cc1`, the cell number change came to 13.5%. The AC50 under setting [1] was 0.103 µM [rising, full curve, poor fit].

As for `O=C(Nc1ccccc1N1CCCC1)C1CC(=O)N(Cc2ccccc2)C1` (stereo not given), under setting [1], the AC50 was 0.058 µM [rising, full curve, poor fit].

On to `CC(C)c1c(O)nc(SCc2ccc(F)cc2)[nH]c1=O`, for which the cell number change worked out at 8.5%. The AC50 under setting [1] was 4.11 µM [rising, full curve].

These data come from PubChem BioAssay AID2685 (National Center for Advancing Translational Sciences (NCATS), 2010).
